# Values joined by “and” are separate entries in the source; they are usually repeats but may differ in a detail not shown here. Equal values may be shown once. This is one part of the list. For some of these results: The exact form of the protein is not confirmed.
# Experiments:
# Test in all cases: protein microarray (ProtoArray v5.0), streptavidin-Alexa Fluor 647
# Settings in all cases: 3'-biotin; 20 mM Tris (pH 7.5), 5 mM MgCl2, 100 mM KCl, 0.1% Tween-20, A/T-rich and random oligonucleotide blockers; temperature not stated; high values mean tight binding
# GOSR1 (human) = test system: GOSR1 (human)
# GP1BA (human) = test system: GP1BA (human)
# GP9 (human) = test system: GP9 (human)
# GPC4 (human) = test system: GPC4 (human)
# GPC5 (human) = test system: GPC5 (human)
# GPD1 (human) = test system: GPD1 (human)
# [1] = test system: GPI transamidase component PIG-S (human)
# GPLD1 (human) = test system: GPLD1 (human)
# GPM6A (human) = test system: GPM6A (human)
# GPM6B = target: T1, GPM6B (UniProt Q13491)
# T1 sequence: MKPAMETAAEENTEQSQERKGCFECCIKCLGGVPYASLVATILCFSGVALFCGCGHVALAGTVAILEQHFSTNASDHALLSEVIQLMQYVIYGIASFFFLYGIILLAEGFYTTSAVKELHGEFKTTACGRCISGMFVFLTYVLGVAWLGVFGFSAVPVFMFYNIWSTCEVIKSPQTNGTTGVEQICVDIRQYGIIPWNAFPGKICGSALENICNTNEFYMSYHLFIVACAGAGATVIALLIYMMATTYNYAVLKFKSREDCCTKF
sequence,measurement,setting,value
GGGAGGCTGAGGCAGG [G4-1 biotinylated (PQS2)],binding signal,GOSR1 (human),-0.321 z-score and -0.303 z-score
same,binding signal,GP1BA (human),-0.298 z-score
same,binding signal,GP9 (human),-0.332 z-score
same,binding signal,GPC4 (human),-0.314 z-score
same,binding signal,GPC5 (human),-0.343 z-score
same,binding signal,GPD1 (human),-0.361 z-score
same,binding signal,[1],-0.31 z-score
same,binding signal,GPLD1 (human),-0.338 z-score
same,binding signal,GPM6A (human),-0.322 z-score
same,binding signal,GPM6B,-0.306 z-score

# Reprinted at random: 2 records from the list
sequence,measurement,setting,value
GGGAGGCTGAGGCAGG [G4-1 biotinylated (PQS2)],binding signal,GPM6B,-0.306 z-score
same,binding signal,[1],-0.31 z-score

# Reference: publication PMC5996148
